{"sequences": {"note": "Protein sequences, listed by entry. Tags and fused reporters are not part of them.", "UniProt P40763, whole entry": "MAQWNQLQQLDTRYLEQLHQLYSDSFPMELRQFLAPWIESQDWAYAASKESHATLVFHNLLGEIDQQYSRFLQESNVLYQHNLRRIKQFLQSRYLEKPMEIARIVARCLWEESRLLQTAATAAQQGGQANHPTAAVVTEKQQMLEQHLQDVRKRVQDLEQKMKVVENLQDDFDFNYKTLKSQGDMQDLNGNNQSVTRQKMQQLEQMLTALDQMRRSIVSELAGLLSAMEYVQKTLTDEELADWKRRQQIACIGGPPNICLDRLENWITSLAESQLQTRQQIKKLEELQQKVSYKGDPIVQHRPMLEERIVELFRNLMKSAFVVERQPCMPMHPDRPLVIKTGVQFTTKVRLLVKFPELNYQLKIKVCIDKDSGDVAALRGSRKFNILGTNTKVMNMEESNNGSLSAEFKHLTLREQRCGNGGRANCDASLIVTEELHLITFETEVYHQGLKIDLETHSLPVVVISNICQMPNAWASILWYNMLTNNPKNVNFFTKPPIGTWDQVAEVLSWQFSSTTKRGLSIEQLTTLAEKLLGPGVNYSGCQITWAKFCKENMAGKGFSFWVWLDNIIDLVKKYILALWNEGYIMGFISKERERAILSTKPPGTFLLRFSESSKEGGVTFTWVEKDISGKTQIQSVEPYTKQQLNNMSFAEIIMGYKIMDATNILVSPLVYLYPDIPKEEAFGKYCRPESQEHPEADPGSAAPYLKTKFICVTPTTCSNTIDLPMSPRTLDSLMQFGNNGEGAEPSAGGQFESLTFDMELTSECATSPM"}, "source": "patent US20250002921", "key": {"[1]": {"molecular_target": "STAT3 (HEK-Blue IL-6 reporter cells) (UniProt P40763)", "experiment": "activity in cells", "details": "thiolated, multivalent on 13 nm gold nanoparticle core, protein in cells, dose not given here"}, "STAT3 (Homo sapiens)": {"molecular_target": "STAT3 (Homo sapiens) (UniProt P40763)", "experiment": "EMSA", "details": "thiolated, multivalent on 13 nm gold nanoparticle core; ISD45-SNA did not bind STAT3; 20 mM Tris pH 7.2, RT; purified recombinant protein"}}, "note": "Construct, isoform or probe ends are uncertain for at least one entry. A negative result means that nothing was seen under these conditions."}
{"sequence": "TACAACATTTCCCGTAAATCGGGGGGATTTACGGGAAATGTTGTA [ISDG5STAT3i-SNA]", "values": [{"measurement": "functional effect of the aptamer", "setting": "[1]; represses STAT3-driven IL-6 reporter (SEAP), folded or branched DNA", "result": "active"}]}
{"sequence": "TACAGATCTACTAGTGATCTATGACTGATCTGTACATGATCTACA / ACATCTAGTACATGTCTAGTCAGTATCTAGTGATCATCAGACA [ISD45-SNA]", "values": [{"measurement": "binding result", "setting": "STAT3 (Homo sapiens)", "result": "no binding"}, {"measurement": "functional effect of the aptamer", "setting": "[1]; no repression of STAT3-driven IL-6 reporter", "result": "not active"}]}
